Values quoted from earlier work in US20170023547A1, “CHEMICAL THREAT ASSESSMENT BY RAPID MOLECULAR PHENOTYPING” (Vanderbilt University, priority 2015, published 2017).

System: A549 cells
Conditions: Yang et al., PloS One 8, e65309 (2013); cited from earlier work

N.N.[Cl][Pt][Cl] [cisplatin]
IC50: 18 to 64 µM
